Assay results from the supplement of paper PMC7666118.
The list shows a part of the results.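 The calls were made as follows: active = dose-dependent thermal stabilisation significant by F-test of dose-response against flat model at 10% FDR; inactive = not significant.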

By UniProt entry, the sequences of proteins in these tests, tags left out. Where a name states a change or a piece, a line headed by the entry shows the natural chain unless it says otherwise.
UniProt Q8WVV9: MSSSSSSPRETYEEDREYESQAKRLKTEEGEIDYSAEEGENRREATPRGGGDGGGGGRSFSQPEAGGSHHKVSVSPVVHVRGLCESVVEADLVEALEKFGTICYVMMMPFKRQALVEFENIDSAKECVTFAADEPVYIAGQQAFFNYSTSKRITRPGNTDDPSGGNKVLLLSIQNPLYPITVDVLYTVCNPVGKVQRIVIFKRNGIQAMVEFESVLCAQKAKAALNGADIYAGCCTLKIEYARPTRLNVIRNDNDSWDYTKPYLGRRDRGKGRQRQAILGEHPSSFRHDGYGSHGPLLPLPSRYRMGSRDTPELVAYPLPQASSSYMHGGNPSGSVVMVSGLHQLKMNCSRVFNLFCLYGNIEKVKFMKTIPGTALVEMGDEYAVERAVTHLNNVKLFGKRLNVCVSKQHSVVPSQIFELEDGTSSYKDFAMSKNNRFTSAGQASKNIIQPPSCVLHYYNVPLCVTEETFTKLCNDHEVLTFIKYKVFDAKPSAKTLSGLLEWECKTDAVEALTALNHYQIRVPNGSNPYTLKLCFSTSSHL
UniProt Q9NZD2: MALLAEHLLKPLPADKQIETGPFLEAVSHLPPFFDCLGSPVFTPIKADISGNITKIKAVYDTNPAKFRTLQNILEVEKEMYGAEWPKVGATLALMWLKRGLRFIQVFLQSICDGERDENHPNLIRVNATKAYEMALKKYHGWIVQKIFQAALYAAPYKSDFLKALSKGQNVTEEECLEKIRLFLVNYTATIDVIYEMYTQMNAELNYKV
UniProt Q8NB37: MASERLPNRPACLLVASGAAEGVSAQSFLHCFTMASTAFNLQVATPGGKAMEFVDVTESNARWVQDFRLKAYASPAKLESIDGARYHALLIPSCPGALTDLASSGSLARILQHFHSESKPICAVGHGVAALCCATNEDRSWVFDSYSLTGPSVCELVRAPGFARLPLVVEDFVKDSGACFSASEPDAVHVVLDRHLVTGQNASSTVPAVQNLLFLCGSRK
UniProt Q9UN86: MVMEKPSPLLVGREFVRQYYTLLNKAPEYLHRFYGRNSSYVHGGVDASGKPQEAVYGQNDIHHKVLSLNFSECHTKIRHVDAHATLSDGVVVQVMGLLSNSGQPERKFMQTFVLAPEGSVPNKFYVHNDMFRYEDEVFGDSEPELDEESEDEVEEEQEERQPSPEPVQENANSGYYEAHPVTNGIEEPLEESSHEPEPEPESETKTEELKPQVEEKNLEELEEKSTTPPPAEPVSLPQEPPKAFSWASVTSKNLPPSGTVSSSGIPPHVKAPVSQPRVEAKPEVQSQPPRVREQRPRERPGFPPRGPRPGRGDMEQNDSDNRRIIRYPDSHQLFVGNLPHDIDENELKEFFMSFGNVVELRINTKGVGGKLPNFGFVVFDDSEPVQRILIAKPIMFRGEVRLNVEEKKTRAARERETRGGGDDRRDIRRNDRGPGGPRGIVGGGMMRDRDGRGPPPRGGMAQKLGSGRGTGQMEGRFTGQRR
UniProt Q9Y5Q8: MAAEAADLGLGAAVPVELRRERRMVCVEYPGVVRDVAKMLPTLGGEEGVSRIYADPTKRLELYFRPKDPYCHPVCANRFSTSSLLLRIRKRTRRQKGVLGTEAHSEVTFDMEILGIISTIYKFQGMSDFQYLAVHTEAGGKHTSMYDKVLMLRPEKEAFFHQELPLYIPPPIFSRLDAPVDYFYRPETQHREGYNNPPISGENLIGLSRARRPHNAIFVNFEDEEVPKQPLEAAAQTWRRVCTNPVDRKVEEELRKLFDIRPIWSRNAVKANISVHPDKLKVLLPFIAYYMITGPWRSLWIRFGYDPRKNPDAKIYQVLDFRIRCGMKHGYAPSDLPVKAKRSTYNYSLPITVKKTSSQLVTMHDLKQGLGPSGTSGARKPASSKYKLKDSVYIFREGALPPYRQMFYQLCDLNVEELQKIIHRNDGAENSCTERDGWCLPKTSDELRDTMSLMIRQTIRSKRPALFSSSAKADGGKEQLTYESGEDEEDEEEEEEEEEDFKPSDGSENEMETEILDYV
UniProt Q13151: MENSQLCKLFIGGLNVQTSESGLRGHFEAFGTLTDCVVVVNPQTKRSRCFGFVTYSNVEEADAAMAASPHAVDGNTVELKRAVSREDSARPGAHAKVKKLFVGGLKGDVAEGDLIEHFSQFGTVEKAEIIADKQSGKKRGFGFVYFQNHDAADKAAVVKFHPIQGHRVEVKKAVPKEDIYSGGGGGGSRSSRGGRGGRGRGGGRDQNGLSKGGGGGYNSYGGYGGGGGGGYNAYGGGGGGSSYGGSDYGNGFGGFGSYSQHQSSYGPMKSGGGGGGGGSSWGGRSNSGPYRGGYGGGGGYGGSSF
UniProt P36915, whole entry: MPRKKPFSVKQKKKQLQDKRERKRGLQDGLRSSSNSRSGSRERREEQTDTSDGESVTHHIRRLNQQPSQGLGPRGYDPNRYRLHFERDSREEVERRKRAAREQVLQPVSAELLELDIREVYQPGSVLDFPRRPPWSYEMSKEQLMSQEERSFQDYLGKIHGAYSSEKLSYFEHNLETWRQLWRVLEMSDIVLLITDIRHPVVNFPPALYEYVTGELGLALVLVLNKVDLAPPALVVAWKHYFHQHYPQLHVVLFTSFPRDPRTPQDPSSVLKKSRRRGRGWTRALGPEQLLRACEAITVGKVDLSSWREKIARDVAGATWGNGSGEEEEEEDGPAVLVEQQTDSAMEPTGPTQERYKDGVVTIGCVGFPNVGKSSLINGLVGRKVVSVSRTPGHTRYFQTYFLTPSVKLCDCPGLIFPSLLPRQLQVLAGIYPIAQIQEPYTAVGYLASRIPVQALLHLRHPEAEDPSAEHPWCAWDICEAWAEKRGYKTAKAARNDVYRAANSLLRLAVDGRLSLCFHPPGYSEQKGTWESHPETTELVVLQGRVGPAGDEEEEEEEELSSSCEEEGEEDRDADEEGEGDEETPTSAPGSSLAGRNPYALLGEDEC
UniProt Q01415: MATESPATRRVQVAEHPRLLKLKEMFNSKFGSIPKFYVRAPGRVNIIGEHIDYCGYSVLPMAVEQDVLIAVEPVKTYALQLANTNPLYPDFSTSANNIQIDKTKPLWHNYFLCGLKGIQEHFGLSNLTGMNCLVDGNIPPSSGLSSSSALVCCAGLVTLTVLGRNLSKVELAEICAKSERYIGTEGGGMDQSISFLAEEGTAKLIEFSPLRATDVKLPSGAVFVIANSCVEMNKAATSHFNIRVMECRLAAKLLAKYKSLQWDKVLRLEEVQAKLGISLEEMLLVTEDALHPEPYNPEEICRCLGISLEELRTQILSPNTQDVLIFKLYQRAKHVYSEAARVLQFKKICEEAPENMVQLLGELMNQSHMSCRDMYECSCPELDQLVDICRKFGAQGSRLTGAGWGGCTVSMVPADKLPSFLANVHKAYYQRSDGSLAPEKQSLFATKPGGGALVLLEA
UniProt Q15651: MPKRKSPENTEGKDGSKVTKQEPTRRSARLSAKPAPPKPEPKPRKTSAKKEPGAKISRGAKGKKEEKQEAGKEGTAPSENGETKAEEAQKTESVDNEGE
UniProt O43716: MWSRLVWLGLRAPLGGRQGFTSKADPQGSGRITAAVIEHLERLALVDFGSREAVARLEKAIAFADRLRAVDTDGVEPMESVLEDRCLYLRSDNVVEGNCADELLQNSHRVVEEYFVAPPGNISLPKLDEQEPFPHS
UniProt Q8WVB3: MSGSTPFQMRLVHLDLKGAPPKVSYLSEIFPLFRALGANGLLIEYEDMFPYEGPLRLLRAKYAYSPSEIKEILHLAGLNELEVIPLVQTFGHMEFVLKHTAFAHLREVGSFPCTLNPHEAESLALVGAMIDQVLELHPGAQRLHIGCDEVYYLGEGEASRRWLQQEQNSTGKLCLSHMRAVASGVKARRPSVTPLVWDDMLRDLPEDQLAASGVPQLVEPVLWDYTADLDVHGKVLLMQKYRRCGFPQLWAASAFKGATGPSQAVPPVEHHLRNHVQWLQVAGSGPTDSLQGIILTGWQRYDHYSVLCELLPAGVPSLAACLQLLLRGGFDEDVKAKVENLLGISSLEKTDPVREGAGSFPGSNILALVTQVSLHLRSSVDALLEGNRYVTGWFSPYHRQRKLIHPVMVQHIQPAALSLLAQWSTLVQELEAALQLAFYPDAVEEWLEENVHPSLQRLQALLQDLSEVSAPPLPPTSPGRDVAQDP
UniProt P21266: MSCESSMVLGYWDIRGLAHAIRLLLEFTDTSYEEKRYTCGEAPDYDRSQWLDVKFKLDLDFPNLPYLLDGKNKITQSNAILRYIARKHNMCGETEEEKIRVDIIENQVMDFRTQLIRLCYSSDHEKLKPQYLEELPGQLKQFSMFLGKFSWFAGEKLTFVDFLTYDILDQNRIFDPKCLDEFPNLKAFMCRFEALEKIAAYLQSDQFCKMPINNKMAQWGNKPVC
UniProt Q8IXQ4: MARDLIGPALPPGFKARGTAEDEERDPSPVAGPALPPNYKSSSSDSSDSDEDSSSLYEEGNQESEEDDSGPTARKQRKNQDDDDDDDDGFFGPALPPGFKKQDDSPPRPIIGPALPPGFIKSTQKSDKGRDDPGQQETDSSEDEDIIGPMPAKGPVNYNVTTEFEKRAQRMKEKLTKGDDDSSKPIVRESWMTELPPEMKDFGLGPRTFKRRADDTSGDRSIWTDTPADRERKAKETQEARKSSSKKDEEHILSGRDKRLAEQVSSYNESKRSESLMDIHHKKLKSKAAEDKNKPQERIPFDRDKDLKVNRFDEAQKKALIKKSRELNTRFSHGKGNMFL
UniProt Q6PII5: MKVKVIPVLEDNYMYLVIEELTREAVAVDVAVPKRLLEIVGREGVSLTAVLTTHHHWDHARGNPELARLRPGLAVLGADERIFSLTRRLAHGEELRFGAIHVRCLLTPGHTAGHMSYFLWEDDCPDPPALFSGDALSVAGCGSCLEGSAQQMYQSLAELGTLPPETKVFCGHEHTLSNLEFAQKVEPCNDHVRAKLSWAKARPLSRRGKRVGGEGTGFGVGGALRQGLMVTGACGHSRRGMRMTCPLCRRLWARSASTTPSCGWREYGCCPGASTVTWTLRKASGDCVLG
UniProt Q9BXV9: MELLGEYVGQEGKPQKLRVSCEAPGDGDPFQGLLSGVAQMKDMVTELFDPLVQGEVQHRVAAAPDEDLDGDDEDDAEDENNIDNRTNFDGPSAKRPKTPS
UniProt Q13888: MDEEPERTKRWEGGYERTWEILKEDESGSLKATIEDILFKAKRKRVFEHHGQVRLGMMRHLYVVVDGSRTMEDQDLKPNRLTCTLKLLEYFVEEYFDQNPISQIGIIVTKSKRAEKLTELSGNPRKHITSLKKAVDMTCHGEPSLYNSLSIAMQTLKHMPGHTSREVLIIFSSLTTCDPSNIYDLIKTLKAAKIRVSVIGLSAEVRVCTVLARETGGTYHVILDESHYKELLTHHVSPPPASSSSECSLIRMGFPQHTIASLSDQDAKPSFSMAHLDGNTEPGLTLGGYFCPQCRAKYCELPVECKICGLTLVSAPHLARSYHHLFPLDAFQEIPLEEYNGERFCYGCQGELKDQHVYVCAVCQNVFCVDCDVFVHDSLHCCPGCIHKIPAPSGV
UniProt Q9NQX3: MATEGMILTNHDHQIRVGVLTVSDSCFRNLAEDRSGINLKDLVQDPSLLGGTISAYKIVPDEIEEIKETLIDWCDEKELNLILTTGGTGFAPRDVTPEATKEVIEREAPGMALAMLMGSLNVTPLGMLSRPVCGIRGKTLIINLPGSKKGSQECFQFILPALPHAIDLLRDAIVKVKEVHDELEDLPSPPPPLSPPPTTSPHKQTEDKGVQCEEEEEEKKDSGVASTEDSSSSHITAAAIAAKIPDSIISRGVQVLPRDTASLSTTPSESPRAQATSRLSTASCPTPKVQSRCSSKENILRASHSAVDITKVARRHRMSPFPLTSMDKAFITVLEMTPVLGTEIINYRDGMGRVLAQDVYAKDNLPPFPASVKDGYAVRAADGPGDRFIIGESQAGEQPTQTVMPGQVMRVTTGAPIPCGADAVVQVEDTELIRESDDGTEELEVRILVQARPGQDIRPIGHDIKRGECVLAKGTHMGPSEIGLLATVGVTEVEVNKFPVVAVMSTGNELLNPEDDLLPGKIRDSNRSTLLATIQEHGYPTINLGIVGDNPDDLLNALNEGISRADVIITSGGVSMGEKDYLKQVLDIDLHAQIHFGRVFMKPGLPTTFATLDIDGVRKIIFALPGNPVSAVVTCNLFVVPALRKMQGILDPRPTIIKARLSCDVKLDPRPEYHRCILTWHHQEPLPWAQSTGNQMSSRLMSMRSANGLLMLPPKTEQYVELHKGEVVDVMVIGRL
UniProt Q3B7J2: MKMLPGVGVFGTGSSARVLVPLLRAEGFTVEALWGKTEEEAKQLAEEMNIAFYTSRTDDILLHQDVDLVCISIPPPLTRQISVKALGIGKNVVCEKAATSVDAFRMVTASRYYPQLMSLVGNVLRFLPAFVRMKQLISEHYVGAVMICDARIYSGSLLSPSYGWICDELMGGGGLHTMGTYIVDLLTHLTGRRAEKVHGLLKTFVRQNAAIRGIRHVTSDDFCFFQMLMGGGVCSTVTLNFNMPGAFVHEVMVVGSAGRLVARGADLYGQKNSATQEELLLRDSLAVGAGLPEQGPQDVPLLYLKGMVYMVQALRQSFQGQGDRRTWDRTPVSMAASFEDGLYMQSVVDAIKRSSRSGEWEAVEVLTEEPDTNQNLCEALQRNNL

What follows are targets tested with Nc1nc2c(ncn2[C@@H]2O[C@H](COP(=O)(O)OP(=O)(O)OP(=O)(O)O)[C@@H](O)[C@H]2O)c(=O)[nH]1 (assay: dose-dependent thermal stabilisation call (2D-TPP, DLPTP, 10% FDR) (binary (1 = stabilised)); higher = stabilised by the compound). Settings: system: Jurkat gel-filtered lysate; concentration range 1-500 µM.

| Target | dose-dependent thermal stabilisation call |
| --- | --- |
| HNRNPLL (UniProt Q8WVV9) | active: 1 |
| GLTP (UniProt Q9NZD2) | inactive: 0 |
| GOPC (UniProt Q9HD26) | inactive: 0 |
| GATD1 (UniProt Q8NB37) | inactive: 0 |
| HEBP1 (UniProt Q9NRV9) | inactive: 0 |
| G3BP2 (UniProt Q9UN86) | inactive: 0 |
| GOT1 (UniProt P17174) | inactive: 0 |
| HEATR5B (UniProt Q9P2D3) | inactive: 0 |
| GTF3C5 (UniProt Q9Y5Q8) | inactive: 0 |
| HNRNPA0 (UniProt Q13151) | inactive: 0 |
| GNB2 (UniProt P62879) | inactive: 0 |
| GEMIN6 (UniProt Q8WXD5) | inactive: 0 |
| GOT2 (UniProt P00505) | inactive: 0 |
| GLG1 (UniProt Q92896) | inactive: 0 |
| HMGN4 (UniProt O00479) | inactive: 0 |
| GNL1 (UniProt P36915) | active: 1 |
| GALK2 (UniProt Q01415) | inactive: 0 |
| HMBS (UniProt P08397) | inactive: 0 |

| Target | dose-dependent thermal stabilisation call |
| --- | --- |
| HMGN3 (UniProt Q15651) | inactive: 0 |
| GATC (UniProt O43716) | inactive: 0 |
| HEXDC (UniProt Q8WVB3) | inactive: 0 |
| GTF2A2 (UniProt P52657) | inactive: 0 |
| HADHB (UniProt P55084) | inactive: 0 |
| GLOD4 (UniProt Q9HC38) | inactive: 0 |
| GSTM3 (UniProt P21266) | active: 1 |
| GPALPP1 (UniProt Q8IXQ4) | inactive: 0 |
| GGNBP2 (UniProt Q9H3C7) | inactive: 0 |
| HAGHL (UniProt Q6PII5) | inactive: 0 |
| GPN1 (UniProt Q9HCN4) | active: 1 |
| GON7 (UniProt Q9BXV9) | inactive: 0 |
| GAPDH (UniProt P04406) | inactive: 0 |
| GIMAP6 (UniProt Q6P9H5) | active: 1 |
| GTF2H2 (UniProt Q13888) | inactive: 0 |
| GLO1 (UniProt Q04760) | inactive: 0 |
| GPHN (UniProt Q9NQX3) | inactive: 0 |
| GFOD2 (UniProt Q3B7J2) | inactive: 0 |

A portion from further up:

| Target | dose-dependent thermal stabilisation call |
| --- | --- |
| GTF3C5 (UniProt Q9Y5Q8) | inactive: 0 |
| HNRNPA0 (UniProt Q13151) | inactive: 0 |
| GNB2 (UniProt P62879) | inactive: 0 |
| GEMIN6 (UniProt Q8WXD5) | inactive: 0 |
| GOT2 (UniProt P00505) | inactive: 0 |
| GLG1 (UniProt Q92896) | inactive: 0 |
| HMGN4 (UniProt O00479) | inactive: 0 |
| GNL1 (UniProt P36915) | active: 1 |
| GALK2 (UniProt Q01415) | inactive: 0 |
